Measurements reported in PubChem BioAssay AID743454 (Peter MacCallum Cancer Centre, 2014)
Screen: 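Genes whose loss kills vorinostat-resistant colon cancer cells under vorinostat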 (primary screen). System: human HCT116-VR colon cancer cells, selected for vorinostat resistance. Reagents: siRNA pool against human genes, 40 nM siRNA pool. Time to read-out: vorinostat for 24 h, read-out about 72 h after transfection. Treatment: vorinostat at 2.5 µM final. Measured: 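Two measures, CellTiter-Fluor viability and luminescent caspase 3/7 activity, each as fold change against same-plate mock wells, mean of duplicates, then screen-wide robust z-score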. Scale: viability robust z-score: higher = more viable cells than screen typical; caspase robust z-score: higher = more caspase 3/7 activity than screen typical. Call rule: 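a knock-down is a hit when classed RV1 or RV2 for lowered viability, or CA1 or CA2 for caspase activation; those lethal without drug were dropped; hits were retested singly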.
This is one part, drawn at random, of about 18,000 reagents. 450 of them (2.5%) were called active. 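Single biological run; no consistent viability z cut-off exists, so the class columns, not z-scores, define the calls.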 A number with no mark means an inactive call.

viability hit class | caspase hit class | viability robust z-score | caspase robust z-score | target
no change | no change | -0.97 | -1.29 | CYB561 (cytochrome b561)
no change | no change | -1.19 | -0.92 | MPHOSPH10 (M-phase phosphoprotein 10)
no change | no change | 0.04 | -0.9 | ARL6IP5 (ARF like GTPase 6 interacting protein 5)
no change | no change | 0.6 | 2.88 | TBR1 (T-box brain transcription factor 1)
no change | no change | 2.12 | -0.62 | M6PR (mannose-6-phosphate receptor, cation dependent)
no change | no change | 1.04 | -0.38 | CNR1 (cannabinoid receptor 1)
no change | no change | -0.2 | -0.63 | CAB39 (calcium binding protein 39)
no change | no change | -0.09 | 0.43 | CDK3 (cyclin dependent kinase 3)
no change | no change | -1.02 | 0.52 | SPINK6 (serine peptidase inhibitor Kazal type 6)
no change | no change | 0.84 | 0.96 | FNDC4 (fibronectin type III domain containing 4)
no change | no change | -2.81 | 1.01 | FAM221B (family with sequence similarity 221 member B)
no change | no change | -0.92 | -1.01 | L1TD1 (LINE1 type transposase domain containing 1)
no change | no change | -0.52 | 0.22 | ADA (adenosine deaminase)
no change | no change | 1.34 | -0.7 | DNPH1 (2'-deoxynucleoside 5'-phosphate N-hydrolase 1)
no change | no change | 0.47 | -0.52 | ARHGAP35 (Rho GTPase activating protein 35)
no change | no change | 0.56 | 1.36 | SH2D1A (SH2 domain containing 1A)
no change | no change | -2.8 | 2.26 | TRPC7
no change | no change | 0.06 | -0.31 | H4C15 (H4 clustered histone 15)
no change | no change | -1.36 | -0.55 | ZBED2 (zinc finger BED-type containing 2)
no change | no change | -0.16 | 1.04 | IQSEC2 (IQ motif and Sec7 domain ArfGEF 2)
no change | no change | 1.11 | -0.32 | XRCC4 (X-ray repair cross complementing 4)
no change | no change | 0.56 | 0.24 | INSL3 (insulin like 3)
no change | no change | 1.23 | 0.02 | CCDC71 (coiled-coil domain containing 71)

Records above whose target name starts with F or f (2):
viability hit class | caspase hit class | viability robust z-score | caspase robust z-score | target
no change | no change | 0.84 | 0.96 | FNDC4 (fibronectin type III domain containing 4)
no change | no change | -2.81 | 1.01 | FAM221B (family with sequence similarity 221 member B)
